# PubChem BioAssay AID493014 (National Center for Advancing Translational Sciences (NCATS), 2011)
# Out of some 340,000 compounds screened, about 170 (0.05%) were called active. Inconclusive results, whose numbers are uncertain, are shown with a selection of clear calls. Calls come from the whole dose curve; as a rule, active = well fitted inhibition curve with a large enough effect in the signal ratio, with a control signal flat (not every such curve was filed as active); inconclusive = small, poorly fitted or top-dose-only effect, or effect the other way, or a change in a side signal; inactive = flat fitted curve, though single readings scatter; the % refers to the signal ratio. Potencies beside an inconclusive call are fits to weak or partial responses and may not hold up.
# Assay: qHTS Assay to Find Inhibitors of Chronic Active B-Cell Receptor Signaling;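 for activity change, negative = inhibition: plate controls were basal doxycycline-induced cells for no effect and cells given 10 µM MG132 for full effect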
# Conditions: ABC-DLBCL IkBa-CBG/CBR reporter, luminescence ratio (green luciferase fused to IkBa over red control in TMD8 lymphoma cells), 4 h; activity change, negative = inhibition: at 46.1 µM (top of the series)
# How it was run: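 Cell line TMD8 (human ABC DLBCL), stably expressing tet-inducible CBG68-IkBa fusion and CBR; IMDM/0.5% FBS; cpd up to 46 uM; dox induction, 4 h, 37C/5% CO2; dual luminescence; green/red ratio; MG132 control.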
# Potency is the fitted concentration of half-maximal effect.
Structure (SMILES),Potency,"activity change, negative = inhibition"
O=C(COC(=O)c1cccc(-n2cnnn2)c1)c1ccc(F)cc1,"inconclusive: 20.6 µM [falling, partial curve]",–
COC(=O)c1ccccc1NS(=O)(=O)c1ccc2c3c(cccc13)C(=O)N2,–,inconclusive: -0.236%
O=C(Nc1nc(-c2ccccc2)cs1)c1cccc([N+](=O)[O-])c1,–,inconclusive: 10.2%
CCN1CCN(C(=O)c2cn(CC)c3ccc(S(=O)(=O)N(C)C)cc3c2=O)CC1,–,inconclusive: 7.49%
CCOC(=O)c1cnc2c(-c3ccccc3)cnn2c1C,"inconclusive: 1 µM [falling, partial curve, poor fit]",–
O=C(NC1CCCCC1)C(=S)NC1CCCCC1,–,inconclusive: 5.18%
COc1ccc(C2CC(c3ccccc3)=NN2S(=O)(=O)c2ccccc2)c(OC)c1 (configuration not stated),–,inconclusive: 4.2%
CN1CCC(Oc2ccc(Sc3ccccc3)cc2)CC1,–,inconclusive: -19.1%
Cc1ccccc1-c1nc2sc3c(c2c(=O)o1)CCC3,"inconclusive: 2.31 µM [falling, partial curve, poor fit]",–
Fc1ccc(/C=C\c2nccc3c2[nH]c2ccccc23)cc1,–,inconclusive: -1.12%
COC(=O)C1=C(C)Nc2ncnn2C1c1ccccn1 (configuration not stated),–,inconclusive: 3.91%
O=c1oc2ccccc2c(NC2CCCCC2)c1NS(=O)(=O)c1ccc(Br)cc1,"inconclusive: 11.2 µM [falling, partial curve]",–
COc1cccc(-n2c(SCC(=O)c3c[nH]c4ccccc34)nc3ccccc3c2=O)c1,"inconclusive: 29.1 µM [falling, partial curve, poor fit]",–
Cc1csc(SCC(=O)Nc2cc(S(=O)(=O)N(C)C)ccc2C)n1,–,inactive
CCOc1cc(/C=C2/SC(=S)N(Cc3ccccc3)C2=O)ccc1O,–,inconclusive: 7.01%
CNC(=S)N(C)/N=C1/C(=O)N(Cc2c(Cl)cccc2Cl)c2ccccc21,–,inconclusive: 0.0298%
C=CCOn1c(=O)c(-c2cccs2)[n+]([O-])c2ccccc21,"inconclusive: 8.2 µM [rising, partial curve, poor fit]",–
C[C@H](CO)N1C[C@H](C)[C@H](CN(C)Cc2ccncc2)Oc2ccc(NC(=O)Nc3ccc(C(F)(F)F)cc3)cc2CC1=O,–,inconclusive: -11.1%
CSC1=N/C(=C\c2ccc(C)s2)C(=O)S1,–,inconclusive: 6.91%
O=C1OC[C@H](Cc2ccc3c(c2)OCO3)/C1=C\c1ccc2c(c1)OCO2,–,inactive
CC(C)C(=O)N1CCN(c2ccccc2N)CC1,–,inconclusive: -10.4%
COc1ccc(-c2n[nH]c(=S)n2/N=C/c2cccn2C)cc1,–,inactive
Cc1ccc2oc(-c3cccc(NC(=S)NC(=O)/C=C/c4ccco4)c3)nc2c1,–,inconclusive: -1.61%
CC1CCN(c2nc3c(c(=O)[nH]c(=O)n3C)n2CC(C)CSc2nnnn2-c2ccccc2)CC1 (configuration not stated),–,inactive
CCOc1ccccc1NC(=O)c1cccc(N2C(=O)CCC2=O)c1,–,inconclusive: -4.76%
Cc1nc(C(F)(F)F)ccc1C(=O)NN1CCOCC1,–,inconclusive: -0.409%

Structure (SMILES),Potency,"activity change, negative = inhibition"
O=C(Nc1ccc(F)cc1)c1cccnc1NCCc1ccccc1,–,inactive
C/C(=C\C(=O)c1cccnc1)Nc1ccc(O)cc1,"inconclusive: 3.26 µM [rising, partial curve, poor fit]",–
O=c1[nH]c(Cc2ccccc2)nc2c1oc1ccccc12,"inconclusive: 0.366 µM [rising, full curve]",–
COC(=O)Nc1ccc2c(c1)ncn2C1CCCCC1,–,inconclusive: -2.48%
FC(F)(F)c1ccc(N/N=C/c2cccnc2)nc1,–,inconclusive: -28.7%
C[C@@H]1CN(S(=O)(=O)c2ccc3c(c2)OCCO3)CCN1S(=O)(=O)c1c(F)cccc1F,–,inactive
Cc1ccccc1OCC(=O)N/N=C/c1c(C)nn(-c2ccccc2)c1Cl,–,inactive
COc1ccc(-c2cc(=O)oc3cc(OC(C)C(=O)NCc4ccccn4)ccc23)cc1 (configuration not stated),–,inactive
C#C[C@]1(O)CC[C@H]2[C@@H]3CCC4=CC(=O)CC[C@@H]4[C@H]3CC[C@@]21CC,–,inconclusive: -0.645%
COc1nc(N=C(N)N)nc2c(C)cccc12,–,inconclusive: 18.1%
O=Cc1ccc(O)c2ncccc12,"inconclusive: 0.562 µM [cytotoxic, partial curve, poor fit]",–
O=C1ON=C(c2ccccc2)/C1=C/c1ccc(O)cc1,–,inactive
CC1Cc2ccccc2N1S(=O)(=O)c1cnc[nH]1 (configuration not stated),–,inconclusive: 6.28%
NC(=O)c1oc2ccccc2c1NC(=O)C1COc2ccccc2O1 (configuration not stated),"inconclusive: 0.1 µM [activator, full curve, poor fit]",–
Cc1cc(N(C)Cc2ccccc2)nc2cc(O)ccc12,–,inconclusive: -0.0309%
COc1ccc(C(=O)Nc2ccc(/C(C)=N/NC(=O)c3ccncc3)cc2)cc1,–,inactive
CC(C)c1ccc(N2C(=O)CC(Sc3ncn[nH]3)C2=O)cc1 (configuration not stated),"inconclusive: 6.51 µM [falling, partial curve]",–
Cc1ccc(NC(=O)COC(=O)c2ccc(Cl)nc2)cc1S(=O)(=O)N1CCCCC1,–,inconclusive: 4.77%
COc1cc(/C=C/C(=O)OC(C)C(=O)c2ccccc2)cc(OC)c1OC (configuration not stated),–,inactive
Cn1c(=O)c(C(=O)NNC(=O)c2ccccc2Cl)c(O)c2ccccc21,"inconclusive: 35.5 µM [falling, partial curve]",–
O=C(CSc1nc2ccc(Cl)cc2[nH]1)c1cccs1,–,inconclusive: 1.21%
CSCc1cc(N(C)c2ccccc2)nc(-c2ccccn2)n1,–,inactive
O=C(NC1CC2CCCC(C1)N2Cc1ccccc1)c1cccc(Cl)c1 (configuration not stated),–,inactive
COc1ccc(N(CC(=O)N2CCN(c3cccc(C)c3)C(C)C2)S(=O)(=O)c2c(C)n[nH]c2C)cc1 (configuration not stated),–,inconclusive: -4.54%
N#C/C(=C\c1ccc(O)c(O)c1)C(=O)NCc1ccccc1,"inconclusive: 29.1 µM [falling, single point]",–
CCC1(c2ccccc2)NC(=O)N(CC(=O)Nc2ccc(N3CCCC3)cc2C)C1=O (configuration not stated),–,inactive

# Sorted by number of heavy atoms (smallest number first): 3 of the compounds above
Structure (SMILES),Potency,"activity change, negative = inhibition"
CC(C)C(=O)N1CCN(c2ccccc2N)CC1,–,inconclusive: -10.4%
CC(C)c1ccc(N2C(=O)CC(Sc3ncn[nH]3)C2=O)cc1 (configuration not stated),"inconclusive: 6.51 µM [falling, partial curve]",–
O=C(Nc1nc(-c2ccccc2)cs1)c1cccc([N+](=O)[O-])c1,–,inconclusive: 10.2%
